These are yes or no findings as the source states them, for the method shown. In cells and extracts the contact can be indirect. Some binding calls cover weakened binding; strength is not graded here. Where a sequence is shown, tags or fusion partners need not be part of it. Blank lines part the entries; values can stand above or below the molecule they belong to.
Tests used:
[1] = molecular target: T1, GFP-WIP1 (UniProt O15297); experiment: co-IP; GFP-tagged bait precipitated with GFP-Trap beads (1 h) from lysates of transfected HEK293 cells; lysis buffer 50 mM Tris pH 8.0, 120 mM NaCl, 1% Tween-20, 0.1% NP-40, with benzonase and EtBr; 4 washes; Western blotting; cells untreated, or exposed to 3 Gy of IR and collected at indicated times (Figure 4B)
T1 sequence: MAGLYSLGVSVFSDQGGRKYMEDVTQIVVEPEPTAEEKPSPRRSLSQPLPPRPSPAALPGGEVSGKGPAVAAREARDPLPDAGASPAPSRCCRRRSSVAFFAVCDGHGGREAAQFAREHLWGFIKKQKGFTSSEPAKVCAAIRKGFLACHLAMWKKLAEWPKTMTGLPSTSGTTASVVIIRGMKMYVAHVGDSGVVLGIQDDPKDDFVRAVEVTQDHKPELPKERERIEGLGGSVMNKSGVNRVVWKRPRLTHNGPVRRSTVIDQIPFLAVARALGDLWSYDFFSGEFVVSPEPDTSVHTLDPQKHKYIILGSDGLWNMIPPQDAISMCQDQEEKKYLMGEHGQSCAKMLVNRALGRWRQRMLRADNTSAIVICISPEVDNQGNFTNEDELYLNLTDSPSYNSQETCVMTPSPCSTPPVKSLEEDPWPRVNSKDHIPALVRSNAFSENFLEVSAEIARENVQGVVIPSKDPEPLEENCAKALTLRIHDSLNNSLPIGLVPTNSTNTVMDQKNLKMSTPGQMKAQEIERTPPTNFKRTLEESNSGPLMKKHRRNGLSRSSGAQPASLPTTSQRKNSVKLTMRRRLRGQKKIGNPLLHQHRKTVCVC

By UniProt entry, the sequences of proteins in these tests, tags left out.
UniProt Q99728: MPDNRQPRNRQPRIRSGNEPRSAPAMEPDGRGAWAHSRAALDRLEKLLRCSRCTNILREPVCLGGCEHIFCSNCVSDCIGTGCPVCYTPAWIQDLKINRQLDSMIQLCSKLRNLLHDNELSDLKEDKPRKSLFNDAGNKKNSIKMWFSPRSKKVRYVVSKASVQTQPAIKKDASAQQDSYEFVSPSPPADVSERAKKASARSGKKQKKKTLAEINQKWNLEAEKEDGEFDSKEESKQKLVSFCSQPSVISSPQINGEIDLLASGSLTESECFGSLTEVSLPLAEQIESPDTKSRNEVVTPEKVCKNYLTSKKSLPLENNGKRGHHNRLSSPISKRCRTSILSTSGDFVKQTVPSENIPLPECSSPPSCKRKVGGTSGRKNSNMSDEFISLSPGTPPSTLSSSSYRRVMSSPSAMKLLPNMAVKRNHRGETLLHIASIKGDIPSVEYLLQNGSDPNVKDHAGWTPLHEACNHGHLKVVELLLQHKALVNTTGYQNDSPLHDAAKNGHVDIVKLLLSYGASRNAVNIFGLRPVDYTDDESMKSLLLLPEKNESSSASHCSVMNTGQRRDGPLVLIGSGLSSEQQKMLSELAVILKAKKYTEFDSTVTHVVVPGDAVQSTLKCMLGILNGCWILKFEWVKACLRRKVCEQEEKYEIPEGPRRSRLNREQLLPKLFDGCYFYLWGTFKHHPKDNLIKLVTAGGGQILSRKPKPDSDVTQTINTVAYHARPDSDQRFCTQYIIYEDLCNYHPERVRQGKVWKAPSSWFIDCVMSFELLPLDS
UniProt Q12888: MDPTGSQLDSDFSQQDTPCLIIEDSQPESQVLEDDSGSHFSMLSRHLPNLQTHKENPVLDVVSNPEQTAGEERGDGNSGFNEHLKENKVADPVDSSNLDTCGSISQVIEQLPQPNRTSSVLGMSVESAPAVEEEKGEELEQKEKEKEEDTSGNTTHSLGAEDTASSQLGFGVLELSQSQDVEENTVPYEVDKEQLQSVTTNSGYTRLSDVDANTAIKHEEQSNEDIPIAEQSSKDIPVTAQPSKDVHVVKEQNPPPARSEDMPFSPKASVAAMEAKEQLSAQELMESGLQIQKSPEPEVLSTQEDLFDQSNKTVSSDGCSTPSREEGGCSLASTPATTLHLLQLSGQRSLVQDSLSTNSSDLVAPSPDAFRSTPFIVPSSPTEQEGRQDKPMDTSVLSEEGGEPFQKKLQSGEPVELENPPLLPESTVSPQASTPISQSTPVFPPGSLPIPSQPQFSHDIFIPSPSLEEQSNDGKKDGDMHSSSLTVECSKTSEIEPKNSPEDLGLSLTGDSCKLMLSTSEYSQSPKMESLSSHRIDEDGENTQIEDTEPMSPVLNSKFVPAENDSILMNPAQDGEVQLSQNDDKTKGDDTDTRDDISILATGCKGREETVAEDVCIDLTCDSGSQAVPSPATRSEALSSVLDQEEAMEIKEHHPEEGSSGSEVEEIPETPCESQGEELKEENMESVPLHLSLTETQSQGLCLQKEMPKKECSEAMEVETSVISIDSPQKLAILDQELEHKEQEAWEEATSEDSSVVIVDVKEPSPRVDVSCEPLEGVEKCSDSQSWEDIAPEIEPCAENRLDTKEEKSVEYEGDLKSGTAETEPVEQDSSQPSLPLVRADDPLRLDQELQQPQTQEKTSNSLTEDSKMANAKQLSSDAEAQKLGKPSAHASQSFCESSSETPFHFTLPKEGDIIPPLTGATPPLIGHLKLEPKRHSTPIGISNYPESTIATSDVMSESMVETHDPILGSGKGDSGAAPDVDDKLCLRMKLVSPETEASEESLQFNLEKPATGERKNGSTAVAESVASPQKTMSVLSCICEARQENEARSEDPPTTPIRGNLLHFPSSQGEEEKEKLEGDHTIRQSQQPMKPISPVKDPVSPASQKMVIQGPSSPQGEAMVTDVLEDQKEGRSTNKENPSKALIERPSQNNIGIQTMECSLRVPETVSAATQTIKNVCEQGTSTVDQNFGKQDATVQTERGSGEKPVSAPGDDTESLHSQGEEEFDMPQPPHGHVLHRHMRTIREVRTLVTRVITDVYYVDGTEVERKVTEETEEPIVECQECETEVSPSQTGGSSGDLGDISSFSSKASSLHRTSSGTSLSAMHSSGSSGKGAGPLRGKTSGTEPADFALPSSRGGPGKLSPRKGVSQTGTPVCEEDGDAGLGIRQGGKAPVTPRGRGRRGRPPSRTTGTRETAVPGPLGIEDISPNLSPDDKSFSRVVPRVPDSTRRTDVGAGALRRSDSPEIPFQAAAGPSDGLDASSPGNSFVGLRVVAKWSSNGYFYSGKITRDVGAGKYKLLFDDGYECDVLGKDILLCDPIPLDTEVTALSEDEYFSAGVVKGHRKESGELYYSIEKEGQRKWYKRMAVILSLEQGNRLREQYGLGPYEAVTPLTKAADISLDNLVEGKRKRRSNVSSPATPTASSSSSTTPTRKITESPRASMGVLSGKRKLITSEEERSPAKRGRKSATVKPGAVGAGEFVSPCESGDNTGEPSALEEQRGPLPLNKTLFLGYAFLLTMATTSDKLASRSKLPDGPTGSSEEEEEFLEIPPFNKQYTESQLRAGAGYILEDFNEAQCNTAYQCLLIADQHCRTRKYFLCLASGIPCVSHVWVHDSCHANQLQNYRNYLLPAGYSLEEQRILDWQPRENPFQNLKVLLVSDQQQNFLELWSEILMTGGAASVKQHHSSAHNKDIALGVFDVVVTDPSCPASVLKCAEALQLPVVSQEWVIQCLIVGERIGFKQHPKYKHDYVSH

[2] = molecular target: GFP-BARD1 (UniProt Q99728); experiment: as above

- binding [1]: binds
Molecule: TP53-binding protein 1 (53BP1), endogenous in HEK293 (from UniProt Q12888 1-1972)

- binding [2]: binds
B1: Flag-WIP1 (enzyme, UniProt O15297 1-605)
chain: T1 sequence
